In patent publication US20100152140A1, “Method of Cancer Treatment with Naphthol Analogs” (priority 2007, published 2010):
At least one peptide structure holds a part that was inferred or is arguable (an end, a ring closure or a residue).

Test system: H1734 cells
Experiment: Western blot of apoptosis cleavage products (PARP, caspase-9, caspase-3)
Assay type: cell-based, human
Conditions: H1734, Ac-DEVD-CHO 5 μM 2 h pre-incubation, then 20 μM Ro-31-8220 24 h
Protocol: Western Blot Analysis. Protein extracts from each of NSCLC cells and the NHTBE cells, were prepared by lysing the cells in SDS lysis buffer (250 mM Tris-Cl, pH 6.5, 2% SDS, 4% β-mercaptoethanol, 0.02% bromophenol blue, 10% glycerol) containing protease and phosphatase inhibitors. Standard SDS-PAGE and Western blotting procedures were used to analyze the cell extracts. Nitrocellulose blots were probed with anti-CREB and anti-phospho-specific pSer-133 CREB (Upstate Biotechnology, Waltham, Mass.); anti-Bcl-2, anti-Bcl-XL, anti-phospho-Erk1/2, and anti-Erk1/2 (Santa Cruz Biotechnology, Santa Cruz, Calif.); and anti-phospho-Rsk and anti-Rsk (Cell Signaling Technology, Cambridge, Mass.). To detect the cleavage products of apoptosis, nitrocellulose blots were probed with anti-poly (ADP-ribose) polymerase (PARP), anti-caspase-9, and anti-caspase-3 antibodies (New England Biolabs, Beverly, Mass.). Anti-actin antibodies were purchased from Sigma-Aldrich (St. Louis, Mo.) and the caspase-3 inhibitor Ac-DEVD-CHO was obtained from Promega (Madison, Wis.).

CC(=O)N[C@@H](CC(=O)O)C(=O)N[C@@H](CCC(=O)O)C(=O)N[C@H](C(=O)N[C@H](C=O)CC(=O)O)C(C)C [Ac-DEVD-CHO]
Ro-31-8220 induced caspase-3 cleavage: suppressed
